This assay is described as follows: qHTS Assay for Lipid Storage Modulators in Drosophila S3 Cells.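 For cell number change: cells counted by Cell Tracker Red CMTPX staining in the red channel.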 The conditions noted are these: BODIPY lipid droplet fluorescence, 18-24 h; for cell number change: measured here: cell count max response, cells fed with added oleic acid. The method in brief:
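Drosophila S3 cells loaded with oleic acid (400 uM, as added) and compounds at several concentrations; lipid droplets imaged by 488-nm laser-scanning cytometry, 500–530 nm intensity and object ratio to cell channel. Percent activity normalized to 20 uM Triacsin C.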

[1] abbreviates: measured here: cell number channel AC50, cells fed with added oleic acid.
Setting [2] is: measured here: lipid fluorescence (Fed channel) AC50, cells fed with added oleic acid.

Molecules are shown by their SMILES. Some of the results follow. Shown are side measurements of this screen, not its main read-out; they come without a call. Compounds called inactive in the main read-out are mostly missing here. Potencies come from curve fits of mixed quality, noted in brackets.

These results are taken from PubChem BioAssay AID2685 (National Center for Advancing Translational Sciences (NCATS), 2010).

Broadly, the AC50 is the concentration giving half of the maximal activity seen. High values mean activity only at high concentration, low ones activity at low concentration.

For the compound `COc1ccc(C)cc1NC(=O)c1ccc(S(=O)(=O)N2CCCCC2)cc1`, the cell number change was 35.7%. For the same compound, the half-maximal activity concentration (AC50) under setting [1] was 29.1 µM [rising, single point].

On to `N#C/C(=C\c1ccc(F)cc1)C(=O)NC1CCS(=O)(=O)C1` (centres undefined), for which the cell number change is -24.4%. Further, under setting [1], the half-maximal activity concentration (AC50) is 0.00517 µM [falling, full curve, poor fit].

Take `O=C(COC(=O)c1nc(Cl)ccc1Cl)NC1CCCCC1`: the cell number change was -25.2%. Moreover, the AC50 under setting [2] is 29.1 µM [falling, single point].

Consider `Cc1ccc(S(=O)(=O)N2CCC(C(=O)NCCCN3CCCCCC3)CC2)cc1`, for which the cell number change is -32.8%. Besides, the AC50 under setting [1] was 0.00517 µM [falling, full curve, poor fit]. The AC50 under setting [2] is 14.6 µM [falling, partial curve, poor fit].

`COc1ccccc1Oc1nc2c(c(=O)n(Cc3ccccc3F)c(=O)n2C)n1C`: the cell number change was -2.9%.

On to `O=C(N/C(=C/c1ccccc1F)C(=O)N1CCCCC1)c1ccccc1`, for which the cell number change was -11.4%. Further, the AC50 under setting [2] is 29.1 µM [rising, partial curve, poor fit].

On to `CCn1c(-c2ccc(OC)c(OC)c2)n[nH]c1=S`, for which the cell number change was -2.98%. The AC50 under setting [2] is 14.6 µM [rising, partial curve, poor fit].

Regarding `O=C(c1ccc(F)c(S(=O)(=O)N2CCOCC2)c1)N1CCN(c2ncccn2)CC1`, the cell number change amounted to 3.71%. Further, under setting [2], the AC50 is 2.06 µM [rising, partial curve, poor fit].

For `COc1ccc2nc(N/C(N)=N/C(=S)Nc3c(C)cccc3C)nc(C)c2c1`, the cell number change is -31%. Besides, the half-maximal activity concentration (AC50) under setting [1] was 29.1 µM [falling, single point]. The AC50 under setting [2] is 29.1 µM [falling, single point].

In the case of `COC(=O)N/N=C/c1cc(N=Nc2ccccc2Cl)ccc1O`, the cell number change is -6.9%. Moreover, the AC50 under setting [2] was 0.116 µM [falling, full curve, poor fit].

For `Cc1ccsc1C(=O)N1CCN(C(=O)c2ccco2)CC1`, the cell number change is -22%. The half-maximal activity concentration (AC50) under setting [2] was 32.6 µM [falling, partial curve, poor fit].

For `COc1ccc(-c2[nH]ncc2/C=C(/C#N)C(=O)NC2CCCCCC2)cc1`, the cell number change is -38.3%. Also, under setting [1], the AC50 is 29.1 µM [falling, single point].

As to `O=C(OCC(=O)N1CCCC1)c1ccccc1C(=O)c1ccccc1`, the cell number change was 23.4%. Moreover, under setting [1], the concentration at half-maximal activity (AC50) is 0.731 µM [falling, single point]. Further, the AC50 under setting [2] was 0.731 µM [falling, partial curve].

`CCN(CC)CCCNC(=S)N(Cc1ccco1)Cc1cc2cc3c(cc2[nH]c1=O)OCCO3`: the cell number change turned out to be 77%. Further, under setting [1], the AC50 was 3.66 µM [rising, full curve, poor fit]. Further, under setting [2], the AC50 is 6.51 µM [rising, partial curve].

With `COCCn1c(COc2ccc(Cl)cc2)nnc1SCC(N)=O`, the cell number change is -158%. The AC50 under setting [1] was 25.9 µM [falling, partial curve]. The concentration at half-maximal activity (AC50) under setting [2] was 20.6 µM [falling, partial curve].
